{"sequences": {"note": "Sequences of proteins named here, by UniProt entry; tags and fusion partners are left off.", "UniProt Q86WV6, whole entry": "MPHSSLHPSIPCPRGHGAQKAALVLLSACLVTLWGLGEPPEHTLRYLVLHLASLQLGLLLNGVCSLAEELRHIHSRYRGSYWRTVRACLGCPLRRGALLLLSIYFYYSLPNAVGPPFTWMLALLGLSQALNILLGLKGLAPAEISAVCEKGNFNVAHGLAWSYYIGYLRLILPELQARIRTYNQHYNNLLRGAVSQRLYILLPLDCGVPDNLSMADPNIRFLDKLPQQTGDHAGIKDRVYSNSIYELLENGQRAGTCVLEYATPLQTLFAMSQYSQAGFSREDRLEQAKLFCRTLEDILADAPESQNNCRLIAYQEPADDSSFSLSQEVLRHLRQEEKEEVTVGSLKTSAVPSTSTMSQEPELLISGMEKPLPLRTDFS"}, "source": "paper doi:10.1101/2020.12.21.423744", "note": "Results are given in words; binding and its absence hold for the method and conditions named. In cells and extracts the contact can be indirect. Here binding means that the protein was enriched with, or labelled near, the bait; the list need not be complete."}
{"biological_target": "STING-GFP (STimulator of INterferon Genes fused to GFP) (UniProt Q86WV6)", "test": "affinity purification with mass spectrometry"}
{"substance": "SYNCRIP (from UniProt O60506 1-623)", "binding": "binds"}
{"substance": "DDX5 (from UniProt P17844 1-614)", "binding": "binds"}
{"substance": "MLL1 (from UniProt Q03164 1-3969)", "binding": "binds"}
{"substance": "Rbmx (from UniProt P38159 1-391)", "binding": "binds"}
{"substance": "DDX41 (from UniProt Q9UJV9 1-622)", "binding": "binds"}
{"substance": "Lamin A (from UniProt P02545 1-646)", "binding": "binds"}
{"substance": "MEN1 (from UniProt O00255 1-610)", "binding": "binds"}
{"substance": "Brd2 (from UniProt P25440 1-801)", "binding": "binds"}
{"substance": "PARP1 (from UniProt P09874 1-1014)", "binding": "binds"}
